At least one structure is not confirmed: it was looked up by name or label, or the drawing left a doubt.
Columns and labels:
[1] = Reduction of fluorescence intensity of fluorescein in human serum vs aqueous (PBS) standards; type: physicochemical
[2] = Reduction of fluorescence intensity of fluorescein in human vitreous humor vs aqueous (PBS) standards; type: physicochemical

## O=C1OC2(c3ccc(O)cc3Oc3cc(O)ccc32)c2ccccc21 [fluorescein]
[1]; fluorescein 0-2400 ng/ml in human serum at 25° C. vs PBS pH 7.4, spectrofluorometer
  reduction in fluorescence intensities of the serum standards compared to the aqueous standards: about 82%
[1]; human serum at 25° C. vs PBS pH 7.4
  shift in spectral position or change in spectral shape, serum standards vs aqueous (PBS) solutions: no shift in spectral position or change in spectral shape
[2]; fluorescein 0-800 ng/ml in human vitreous humor at 25° C. vs PBS pH 7.4, spectrofluorometer
  reduction in fluorescence intensities of the vitreous humor standards compared to the aqueous standards: about 5%
[2]; human vitreous humor at 25° C. vs PBS pH 7.4
  shift in spectral position or change in spectral shape, vitreous humor standards vs aqueous solutions: no shift in spectral position or change in spectral shape

Reference: patent publication US20080129961A1, “METHOD AND APPARATUS FOR MEASURING QUANTITY OF A FLUOROCHROME IN A BIOLOGICAL ENVIRONMENT” (priority 2006, published 2008)
